{"source": "PubChem BioAssay AID1508600", "about": "(Functional Genomics Laboratory (NCATS/FGL), 2020)", "note": "The whole screen tested about 53,000 sequences, of which about 3,700 (7%) were called active.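 The calls were made as follows: active = gene knockdowns whose robust z-score for IL-1 alpha signal is at least 2 or at most -2, so actives lie on both sides; inactive = the rest.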 This is one part of the list."}
{"assay": "Components of the Cytosolic LPS Sensing Pathway: Gene Identification via Genome-wide siRNA Screen;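 also: robust z of the log signal after scaling to non-targeting control siRNA wells of the plate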", "conditions": "RAW264.7 macrophages, IL-1a HTRF, actives lie on both sides, screened at 100 nM (by protocol), cells primed 5 h with Pam3CSK4 first", "summary_of_the_method": "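Three distinct siRNAs per gene were tested singly at 100 nM in RAW264.7 macrophages. Following Pam3CSK4 priming and 24 hour LipidA transfection, IL-1a secretion was read by HTRF.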"}
{"sequence": "GGCACCUUUCAACGUAACCTT against Ntn3", "z-score": "inactive: 1.32"}
{"sequence": "GGUCAGAGAAAGAUGUAAATT against Mtfr1", "z-score": "inactive: -0.915"}
{"sequence": "GGGCUUUUACCUGAAUCACTT against Megf9", "z-score": "inactive: 0.438"}
{"sequence": "CCAAAUGAAGCUCUGAAGATT against Tmtc3", "z-score": "inactive: -0.21"}
{"sequence": "GGUUACUCUCCAGAUGAAATT against Srpx2", "z-score": "inactive: 0.0702"}
{"sequence": "GGCUAUUCCUUUGUGACCATT against Actg2", "z-score": "inactive: -0.014"}
{"sequence": "GGACAUCAGAUGAGAAUGUTT against Rab19", "z-score": "inactive: -0.408"}
{"sequence": "GGGUACCUAGGGUUAUGAATT against Hps6", "z-score": "inactive: -0.606"}
{"sequence": "GGUUGUCAAAGUCAAACCATT against H1f0", "z-score": "inactive: -0.527"}
{"sequence": "CGAAGCCUAUCGAAAAGUCTT against Adcyap1", "z-score": "inactive: 0.998"}
{"sequence": "CCGUUCCAUCAUUAAGACCTT against Tssk2", "z-score": "inactive: 0.359"}
{"sequence": "GGAACUUGGUGCAAUCAUCTT against Pld4", "z-score": "inactive: -0.601"}
{"sequence": "GGUCAUUCUGGCUUAGUAATT against Hira", "z-score": "inactive: -0.335"}
{"sequence": "GUUCAAGAGGGAGCUGGAATT against Pomc", "z-score": "inactive: 0.842"}
{"sequence": "CGCUCAAAAAUGGAUUCAATT against Atad5", "z-score": "inactive: 0.323"}
{"sequence": "GCCCACAUUUGUGUAAUUCTT against Olfr653", "z-score": "inactive: -1.92"}
{"sequence": "GGUGAUCAGAAAGUACACCTT against Dtx2", "z-score": "inactive: 0.818"}
{"sequence": "GGACACUUCCAUGUGCUACTT against Cep19", "z-score": "active: 2.14"}
{"sequence": "GGCAGGACUCUGGAACAAGTT against Slc2a8", "z-score": "inactive: -1.75"}
{"sequence": "GGAACAGAUUCUUAACUCCTT against Kash5", "z-score": "inactive: 0.438"}
{"sequence": "CGAAUAUUGUGUCAGGUAUTT against Ppp4r1", "z-score": "inactive: 0.134"}
{"sequence": "GGUCAGAAGAGAUGCCAAUTT against Hcar1", "z-score": "inactive: -0.494"}
{"sequence": "GGACUGAAAGACUUGCUCGTT against Hprt", "z-score": "inactive: -0.21"}
{"sequence": "GCAGUUUUUGAGUCACUACTT against Calm5", "z-score": "inactive: 0.954"}
{"sequence": "GCGAAGGCGAUUUCUACUATT against A3galt2", "z-score": "inactive: 0.275"}
{"sequence": "GGUGCUGGAGAUGAAGAACTT against Mtus2", "z-score": "inactive: 1.42"}
{"sequence": "GCACAUGCAUAUCUGGAUCTT against Olfr577", "z-score": "inactive: 0.768"}
{"sequence": "GGCAGAACCCUUUGAUGACTT against Fos", "z-score": "inactive: -0.0931"}
{"sequence": "CCAUUUAACCGUAAGACGUTT against Krtap19-5", "z-score": "inactive: 0.346"}
{"sequence": "GGCAAAUACUUCACAUUAUTT against Nkrf", "z-score": "inactive: -1.36"}
{"sequence": "CCAUACAUCAGUACUUACCTT against Olfr553", "z-score": "inactive: 0.477"}
{"sequence": "GGCCUCAACUAAGAACCCUTT against Pcdh1", "z-score": "inactive: -0.298"}
{"sequence": "GGUGGAUAUUGAUAUCAAGTT against Fga", "z-score": "active: 3.31"}
{"sequence": "GCAGUUUUGGGCAAUACCUTT against Olfr358", "z-score": "inactive: 1.22"}
{"sequence": "GGCUGCUCUAUUAUAAGAATT against Adap2", "z-score": "inactive: 0.392"}
{"sequence": "CCUCAACAGUUCCUAAGUUTT against Olfr1275", "z-score": "inactive: -0.00172"}
{"sequence": "GGAAAGGUGUGAACAAUUGTT against Myh8", "z-score": "inactive: 0.297"}
{"sequence": "GGAUCGAUCUGUUGAACAGTT against Dag1", "z-score": "inactive: 0.957"}
{"sequence": "GGAAGUGGUGGAACUCCUGTT against Tmem215", "z-score": "active: -2.65"}
{"sequence": "GGCAACUCUUGAAGACUUGTT against Gdf15", "z-score": "inactive: 0.00448"}
{"sequence": "GGUCACAAGAAGAGCUUUUTT against Eppk1", "z-score": "inactive: 0.0614"}
{"sequence": "GGGAGAUCAAUCAUUACUUTT against Olfr332", "z-score": "inactive: 0.281"}
{"sequence": "GGGAAUAUUUGAAAUUCCATT against Usp54", "z-score": "inactive: -0.235"}
{"sequence": "GCCAGGUCAAGGCAUACUUTT against Apoa2", "z-score": "inactive: 1.8"}
{"sequence": "CCCGUAACAAGAAUUAGCGTT against Mccc2", "z-score": "inactive: -0.127"}
{"sequence": "GGAGAUCUUCAGUCUCCUUTT against Homer1", "z-score": "inactive: 0.556"}
{"sequence": "GGAUUAGGUCAUUAUUAGGTT against Kcne3", "z-score": "inactive: -0.202"}
{"sequence": "GGGACACACCAUCAAAAGGTT against Kank4", "z-score": "active: -2.32"}
{"sequence": "CCAAUGUUUUAGGCUUCCGTT against Tulp1", "z-score": "inactive: 0.614"}
{"sequence": "GGUCACAGCAAGUUAAUAATT against Ranbp9", "z-score": "active: -2.1"}
{"sequence": "GGACAAGCUAGAAUUUGCCTT against Smim12", "z-score": "inactive: -0.298"}
{"sequence": "GGCCUGUUUUUAAAAAGUCTT against Ddx51", "z-score": "inactive: 1.95"}
{"sequence": "GCUCGAGUGUAAGAUCUGUTT against Rnf182", "z-score": "inactive: 0.355"}
{"sequence": "GGUCAGACAACUCAGGAAGTT against Tnfrsf13b", "z-score": "inactive: -1.98"}
{"sequence": "GCUUCAUCUUACCUACUCATT against Synb", "z-score": "inactive: -0.825"}
{"sequence": "GGGCCAGAAGAAGAGUCGATT against Mllt6", "z-score": "inactive: -0.304"}
{"sequence": "GCUGCAUUACAAGCCCAACTT against Zfp414", "z-score": "inactive: -0.218"}
{"sequence": "GGUCCGAUACAUCUAAACUTT against Cxcl11", "z-score": "inactive: 0.455"}
{"sequence": "GCGGCUAAAUAUCAACACUTT against Eepd1", "z-score": "inactive: -0.657"}
{"sequence": "GGGUUUCUUGUUGGUUUUATT against Dock5", "z-score": "active: 2.29"}
{"sequence": "GCUCGAUAUAAUUUCACACTT against Neto1", "z-score": "inactive: -0.75"}
{"sequence": "GCAAAAACAGGAUCACCCATT against Lrig1", "z-score": "inactive: -0.421"}
{"sequence": "GGACCUAUAGUUCAACAAGTT against Pcf11", "z-score": "inactive: 1.08"}
{"sequence": "GGAUUCAUAAAAGAAGCAATT against Zfp90", "z-score": "inactive: 0.8"}
{"sequence": "CCCUGGACAUUCUAAUUACTT against Lrfn2", "z-score": "inactive: -1.71"}
{"sequence": "GGUAGAAAAUGAUACGUCUTT against Pdcd1lg2", "z-score": "inactive: 0.267"}
{"sequence": "GGAACAUCACUAACAAGUCTT against Cacna1g", "z-score": "inactive: -0.648"}
{"sequence": "GGUGCAGAUCCCAAAUCUGTT against Zc3h15", "z-score": "inactive: 1.14"}
{"sequence": "GGAUGAUGACAUGAAGUUATT against Nlrp5", "z-score": "inactive: 0.239"}
{"sequence": "GGGAAUUGAUCUAAUUGAATT against E2f5", "z-score": "inactive: 1.71"}
{"sequence": "GCCAAGCCAUCUCAUUAAATT against Wdr18", "z-score": "inactive: -0.724"}
{"sequence": "GUUUUACAAAUUCCUCCAUTT against Olfr1447", "z-score": "inactive: 0.345"}
{"sequence": "CGAGUGGCUACUUUCCACUTT against Olfr152", "z-score": "inactive: 0.311"}
{"sequence": "GAUGUGGCACCCAAACAUCTT against Cdc34", "z-score": "inactive: -0.418"}
{"sequence": "GCUAAACGAGUUAUUGGUGTT against Ecpas", "z-score": "inactive: 0.829"}
{"sequence": "GGCGAAAAGCGACGCGGCCTT against Basp1", "z-score": "inactive: 0.682"}
{"sequence": "GUUACUUGAAAAUUGGACATT against Vmn1r58", "z-score": "inactive: -0.104"}
{"sequence": "GCUAAGUUGGAAUUUCCACTT against Chtop", "z-score": "active: 2.05"}
{"sequence": "CGGCUCUUAACAUUUUCAGTT against Eef2", "z-score": "inactive: 0.559"}
{"sequence": "GGCGACAUUACAGAAUUGGTT against Iqsec2", "z-score": "inactive: -0.189"}
{"sequence": "GCAAAGCCUUACCAUGUAATT against Ighg", "z-score": "inactive: 1.33"}
{"sequence": "CCAAUCCAAACGAAGUUAATT against Rgs9", "z-score": "inactive: -0.977"}
{"sequence": "GCACUAAGUCCCAUGUGUCTT against Trim11", "z-score": "inactive: -1.01"}
{"sequence": "UGUGGAACCCAGCACUUUUTT against Olfr458", "z-score": "inactive: 0.562"}
{"sequence": "GGCCUAAGGCUGUGAAUGUTT against D2hgdh", "z-score": "active: -2.59"}
{"sequence": "GGUGUGUUUGCUAUUUCCATT against Olfr259", "z-score": "inactive: 0.4"}
{"sequence": "GGAAGCAAACUUAAAGUGUTT against Ewsr1", "z-score": "active: 2.17"}
{"sequence": "CCUCCUAUUUGGACAUUGCTT against Ints6l", "z-score": "inactive: 0.261"}
{"sequence": "GGUUGAUAAAGUUUGAGUGTT against Sybu", "z-score": "inactive: -0.392"}
{"sequence": "GUCAAAUAUCCAUUAGAAGTT against Scgb2b26", "z-score": "inactive: 0.271"}
{"sequence": "GGUGGCCAAACAGGAAAAGTT against Fau", "z-score": "inactive: 0.91"}
{"sequence": "GGGAAAAUAUCAGCUCAAUTT against D930048N14Rik", "z-score": "active: -2.63"}
{"sequence": "GGCAAAGACGACCUCUCACTT against Vtcn1", "z-score": "inactive: -1.56"}
{"sequence": "GGCCAAGCAUUACAUUUAUTT against Srp54a", "z-score": "inactive: 0.255"}
{"sequence": "CCACCGUACUAAACUAUUCTT against Emilin1", "z-score": "inactive: 1.97"}
{"sequence": "CCCUAAGAAUCCUUGUUCUTT against Vmn1r180", "z-score": "inactive: -0.0605"}
{"sequence": "GGAGUCCUAGAACACACAGTT against Snap29", "z-score": "inactive: -1.79"}
{"sequence": "GCCUUGUAUCGUCAUGUGATT against Card14", "z-score": "inactive: 0.00832"}
{"sequence": "GGCUAUAAAAGGUACUGAGTT against Myocd", "z-score": "inactive: -0.864"}
{"sequence": "GGAGCUUGAUUCAGGAUGGTT against Ttc3", "z-score": "inactive: -0.137"}
{"sequence": "GGCAUGAAUAUGCAUUUAGTT against Arrdc3", "z-score": "active: -3.65"}
{"sequence": "CGAUUUCAUCGAACACUUCTT against Ccnd1", "z-score": "inactive: 1.37"}
{"sequence": "GCGAGUGUAUCUCAACAGCTT against Pitpnc1", "z-score": "inactive: 0.546"}
{"sequence": "GGCUAAGUACGUCAAGAGCTT against Fam110a", "z-score": "inactive: -1.09"}
{"sequence": "GGAAGUUAUAAAACAGAACTT against Inpp1", "z-score": "inactive: 0.372"}
{"sequence": "GCCAUGUUCUUUGCUCCCATT against Pigl", "z-score": "inactive: -1.8"}
{"sequence": "CGAAUUUUGGAGAUGUAUGTT against Ddias", "z-score": "inactive: 0.376"}
